Source: patent publication US12215133B2 (BrightGene Bio-Medical Technology Co., Ltd., priority 2021, dated 2025)

Test system: db/db mice
Test: Inhibitory effect of BG128 on hyperglycemia in db/db mice (Experimental Example 3)
Type: in vivo
Conditions: anticoagulated whole blood, end of experiment, Mean ± SEM
Experimental: 55 6-8 week-old SPF-grade male db/db mice were purchased from Zhejiang Vital River Experimental Animal Technology Co., Ltd.
According to the dosage regimen in Table 7, a certain amount of Tirzepatide and BG128 were weighed and the vehicle (pH=7.0, 20 mM sodium citrate buffer) was added to formulated to the corresponding concentration. The formulation was performed once every 7 days, and the formulated mixture was sub-packaged and stored at 2° C.-8° C. in the dark.
Before the administration, according to the body weight and fasting blood glucose, the animals were grouped into: db/db-ND group, Tirzepatide—0.15 mg/kg group, BG128—0.05 mg/kg group, BG128—0.15 mg/kg group and BG128—0.5 mg/kg group, and each group have 11 animals; and see Table 7 for details.
The day of the first administration was recorded as d1, and the time was recorded by analogy; Tirzepatide and BG128 were administered once every three days, and the time points were d1, d4, d7, d10, d13, d16, d19, d22, d25 and d28, a total of 10 administrations; and see Table 7 for details. […]
The food intake of the animals was recorded starting at three days before the grouping for administration until the end of the experiment. […]
2) Fasting blood glucose: the determination dates were respectively d-1 (before grouping), d7, d13, d19, d25 and d31. The animals were fasted for 6 hours, and the fasting blood glucose was determined before administration.
3 days after the last administration, the animals were weighed and fasted for 6 hours, and the fasting blood glucose of the animals was determined; after anesthesia, a portion of non-anticoagulated whole blood was collected through the orbital venous plexus, stood at room temperature for 30 minutes, and centrifuged at 5000 rpm for 5 minutes, the serum was separated and frozen at −80° C. for the determination of serum insulin content; a portion of anticoagulated whole blood was collected for the determination of HbA1c content. The serum insulin was determined by Elisa method.
The data was organized in Excel 2017 and Prism6.0, and the data was expressed as Mean±SEM (standard error). […]

CNC(CCCCNC(=O)COCCOCCOCCNC(=O)COCCOCCOCCNC(=O)CCC(NC(=O)CC(=O)O)C(=O)O)C(N)=O (stereo not drawn) [BG128]
Hb (0.05 mg/kg s.c. once every three days): 128.10 ± 5.30 | Hb (0.15 mg/kg s.c. once every three days): 131.60 ± 1.23 | Hb (0.5 mg/kg s.c. once every three days): 140.80 ± 2.02
